Experimental findings from US20240316146A1, “METHODS OF REDUCING NEUROPATHY AND NEUROPATHIC SYMPTOMS AND TREATING CANCER” (Bexion Pharmaceuticals Inc., priority 2021, published 2024) are described below.

One series can be described thus: Body weights, Study 1. The series is classed as in vivo, mouse.
The next series is described as follows: Body weights, Study 2. The series is classed as in vivo, mouse. An excerpt:
Body Weights: The mice were weighed daily starting 1 day prior to treatment through day 9.

In series [1] the test system is mouse oxaliplatin model of chemotherapy-induced neuropathy. As to the kind of experiment: Static mechanical (tactile) allodynia, von Frey filaments, Study 1. The series is classed as in vivo. Particulars: oxaliplatin 10 mg/kg IP day 0 (+vehicle, BXQ-350 20 mg/kg IP or pregabalin 30 mg/kg IP). The method, then:
60 adult male C57/BL6 mice (Charles River), 6-7 weeks of age, were housed in groups of 5 in Perspex cages, in a controlled environment of constant temperature and humidity (temperature: 21±1° C., light: dark cycle of 12:12 hours), with food and water available ad libitum. Animals were allowed to recover from transportation for at least one week before commencing experiments.
Static mechanical tactile allodynia: Static mechanical (tactile) allodynia was assessed by measurement of withdrawal threshold using calibrated (force; g) von-Frey monofilaments (Touch-Test Sensory Evaluator; Scientific Marketing Associates) applied to the plantar surface of the left hind-paw. The animals were placed in individual Perspex boxes on a raised metal mesh for 30-40 min before the test to habituate. A series of graduated von Frey hairs (0.07, 0.16, 0.4, 0.6 and 1 g) were applied in sequence with a protocol of 1 sec on 1 sec off repeated 10 times. Each hair was applied perpendicularly to the center of the ventral surface of the paw until it bent slightly. The force applied to the hind-paw of the animal to induce 5 responses out of 10 trials was recorded as paw withdrawal threshold (PWT) 50%.
Warm vials of BQX-350 were brought to room temperature and reconstituted with 4 mL water for injection via syringe. The vials were gently agitated and/or vortexed for 15-20 sec and allowed to sit at room temp for 5 mins. The rehydrated solution contained 2.2 mg/mL SapC (8.8 mg SapC per vial). About […] of the formulation was injected to achieve a target dose of 20 mg/kg in each mouse. Pregabalin was reconstituted in water and injected to achieve a target dose of 30 mg/kg in each mouse.
A two-way repeated measures ANOVA with ‘treatment’ as a between subjects effect, and ‘day’ as a within subjects effect was used (using GraphPad Prism version 9.0 for Windows, GraphPad Software, San Diego California USA), followed by Dunnett's multi comparisons test. Data is presented as mean±SEM.

Setting [2] is: Group B Oxaliplatin/Vehicle, D 5, individual mice.
The mark [3] stands for this setting: Group B Oxaliplatin/Vehicle, D 6, individual mice.
The mark [4] stands for this setting: Group B Oxaliplatin/Vehicle, D 7, individual mice.
Setting [5] is: Group B Oxaliplatin/Vehicle, D 8, individual mice.
The mark [6] stands for this setting: Group B Oxaliplatin/Vehicle, D 9, individual mice.

“And” between values parts separate entries of the source, which are not always exact repeats. Identical values can stand only once. This continues a long series; more values of the same kind are listed elsewhere.

In the case of `O=C([O-])C(=O)[O-].[NH-][C@@H]1CCCC[C@H]1[NH-].[Pt+4]` (relative stereo) [Oxaliplatin, cis-[(1R,2R)-1,2-cyclohexanediamine-N,N′][oxalato(2)-O,O′] platinum], the Individual body weights in the series “Body weights, Study 1” (Group B Oxaliplatin/Vehicle, D 0, individual mice) is 21.5 g and 22.8 g and 22.4 g and 20.6 g and 22.7 g and 20.5 g and 25.2 g and 25.4 g and 23.0 g and 22.5 g and 23.3 g and 24.5 g; in the series “Body weights, Study 1” (Group B Oxaliplatin/Vehicle, D 1, individual mice) it was 21.1 g (2×) and 22.2 g and 24.4 g and 20.5 g and 22.7 g and 19.7 g and 24.3 g and 24.5 g and 22.1 g and 21.8 g and 23.4 g; in the series “Body weights, Study 1” (Group B Oxaliplatin/Vehicle, D 2, individual mice), 21.5 g and 22.3 g and 22.5 g and 20.9 g and 23.7 g and 20.5 g and 24.6 g and 24.9 g and 22.8 g and 22.0 g and 21.9 g and 23.4 g; in “Body weights, Study 1” (Group B Oxaliplatin/Vehicle, D 3, individual mice), 21.3 g and 22.9 g and 22.4 g (2×) and 20.7 g and 23.8 g and 20.4 g and 24.9 g and 24.2 g and 23.2 g and 22.0 g and 23.0 g; in the series “Body weights, Study 1” (setting [2]), 20.7 g and 23.5 g (2×) and 22.8 g and 21.0 g and 20.6 g and 25.4 g and 23.7 g and 23.2 g (2×) and 22.1 g and 22.3 g; in “Body weights, Study 1” (Group B Oxaliplatin/Vehicle, D −1, individual mice), 20.5 g and 22.1 g and 21.5 g and 19.9 g and 22.0 g and 19.8 g and 24.3 g and 24.5 g and 21.9 g and 21.3 g and 22.6 g and 23.3 g. In addition, the Individual body weights is 20.9 g and 22.8 g (2×) and 22.4 g and 20.7 g and 23.6 g and 21.3 g and 25.6 g and 24.4 g and 23.0 g and 22.3 g and 23.8 g in the series “Body weights, Study 1” (setting [3]); 21.8 g and 23.6 g and 23.1 g and 21.5 g and 24.5 g and 21.6 g and 26.4 g and 25.1 g and 23.8 g and 22.7 g and 23.5 g and 24.7 g in “Body weights, Study 1” (setting [4]); 22.1 g and 23.1 g (2×) and 23.0 g and 21.0 g and 24.0 g and 20.9 g and 25.7 g and 24.9 g and 23.6 g and 22.6 g and 24.4 g in “Body weights, Study 1” (setting [5]); 22.4 g and 23.6 g and 23.1 g and 21.2 g and 24.8 g and 21.6 g and 26.4 g and 25.3 g and 24.1 g and 23.5 g and 23.3 g and 24.5 g in the series “Body weights, Study 1” (setting [6]); 25.0 g and 23.5 g and 23.3 g and 22.4 g and 23.0 g and 20.6 g and 24.9 g in “Body weights, Study 2” (setting [2]); 25.3 g (2×) and 23.7 g (2×) and 23.2 g and 23.0 g and 23.9 g and 23.1 g and 22.9 g and 24.0 g and 21.8 g and 25.4 g in the series “Body weights, Study 2” (setting [3]). Also, the Individual body weights in the series “Body weights, Study 2” (setting [4]) was 25.5 g and 23.6 g and 23.4 g (2×) and 22.7 g and 25.7 g and 24.5 g (2×) and 23.3 g and 23.8 g and 21.5 g and 25.8 g; in the series “Body weights, Study 2” (setting [5]), 25.1 g and 23.3 g and 23.4 g (2×) and 21.5 g and 25.3 g and 23.6 g and 23.0 g and 22.7 g and 24.1 g and 21.2 g and 25.4 g; in “Body weights, Study 2” (setting [6]) it was 25.3 g and 23.5 g and 23.4 g and 22.2 g and 25.5 g and 24.0 g and 23.7 g and 23.3 g and 23.1 g and 24.5 g and 22.0 g and 25.7 g.

On to `CC(C)C[C@H](CN)CC(=O)O` [Pregabalin], for which the Individual body weights was 25.4 g and 23.8 g and 21.1 g and 22.3 g and 20.6 g and 21.7 g and 23.3 g and 22.6 g and 22.2 g and 24.5 g and 24.0 g and 23.9 g in “Body weights, Study 1” (Group E Pregabalin/Oxaliplatin, pregabalin target dose 30 mg/kg, D 0, individual mice, 30 mg/kg); 23.9 g and 22.7 g and 20.5 g and 21.3 g (2×) and 19.7 g and 20.8 g and 22.2 g and 21.4 g and 23.7 g and 22.9 g and 22.8 g in the series “Body weights, Study 1” (Group E Pregabalin/Oxaliplatin, pregabalin target dose 30 mg/kg, D 1, individual mice, 30 mg/kg); 24.8 g and 23.4 g and 20.8 g and 21.6 g and 20.0 g and 20.6 g and 22.3 g and 21.7 g and 21.3 g and 24.0 g and 23.3 g and 23.1 g in “Body weights, Study 1” (Group E Pregabalin/Oxaliplatin, pregabalin target dose 30 mg/kg, D 2, individual mice, 30 mg/kg); 24.7 g and 23.1 g and 20.8 g (2×) and 19.5 g and 20.0 g and 21.9 g and 21.8 g and 21.0 g and 24.0 g and 23.2 g and 22.7 g in “Body weights, Study 1” (Group E Pregabalin/Oxaliplatin, pregabalin target dose 30 mg/kg, D 3, individual mice, 30 mg/kg); 24.0 g and 22.5 g and 20.8 g (3×) and 20.3 g and 18.9 g and 19.5 g and 21.4 g and 23.2 g and 22.8 g and 22.4 g in the series “Body weights, Study 1” (Group E Pregabalin/Oxaliplatin, pregabalin target dose 30 mg/kg, D 4, individual mice, 30 mg/kg); 24.8 g and 23.5 g and 21.6 g and 20.3 g and 19.0 g and 19.2 g and 22.0 g and 21.5 g and 21.2 g and 24.2 g and 22.2 g and 23.2 g in “Body weights, Study 1” (Group E Pregabalin/Oxaliplatin, pregabalin target dose 30 mg/kg, D 5, individual mice, 30 mg/kg). For the same compound, the Individual body weights in “Body weights, Study 1” (Group E Pregabalin/Oxaliplatin, pregabalin target dose 30 mg/kg, D 7, individual mice, 30 mg/kg) is 26.0 g and 24.8 g and 22.2 g and 21.7 g and 20.3 g and 20.2 g and 23.2 g and 23.5 g and 22.7 g and 25.6 g and 24.3 g and 24.5 g; in the series “Body weights, Study 1” (Group E Pregabalin/Oxaliplatin, pregabalin target dose 30 mg/kg, D 8, individual mice, 30 mg/kg), 25.3 g and 24.0 g and 22.2 g and 21.6 g and 20.0 g and 20.8 g and 23.1 g and 23.2 g and 22.6 g and 25.1 g and 24.5 g and 24.1 g; in the series “Body weights, Study 1” (Group E Pregabalin/Oxaliplatin, pregabalin target dose 30 mg/kg, D 9, individual mice, 30 mg/kg), 26.4 g and 24.8 g (3×) and 23.1 g and 22.5 g and 21.2 g and 20.9 g and 23.8 g and 24.0 g and 23.4 g and 25.6 g; in the series “Body weights, Study 2” (Group E Oxaliplatin/Pregabalin, D 5, individual mice), 25.1 g (2×) and 26.0 g and 23.8 g (2×) and 24.5 g (2×) and 23.0 g; in the series “Body weights, Study 2” (Group E Oxaliplatin/Pregabalin, D 6, individual mice), 21.8 g and 23.0 g (2×) and 27.1 g and 25.5 g (2×) and 23.5 g and 24.3 g and 23.9 g and 25.0 g and 22.8 g and 25.1 g; in the series “Body weights, Study 2” (Group E Oxaliplatin/Pregabalin, D 7, individual mice), 22.0 g and 23.9 g and 28.0 g and 23.8 g and 25.9 g (2×) and 24.0 g and 24.9 g and 24.6 g and 25.5 g and 23.6 g and 25.2 g. In addition, the Individual body weights is 22.2 g and 23.3 g and 27.2 g and 23.2 g and 25.6 g and 25.4 g and 23.8 g and 24.6 g and 24.1 g and 24.8 g and 23.1 g and 24.5 g in the series “Body weights, Study 2” (Group E Oxaliplatin/Pregabalin, D 8, individual mice); 22.1 g and 24.0 g and 27.8 g and 23.7 g and 25.6 g and 25.8 g and 24.3 g and 25.0 g and 24.8 g and 25.1 g and 23.5 g and 24.9 g in the series “Body weights, Study 2” (Group E Oxaliplatin/Pregabalin, D 9, individual mice). Besides, the “Individual Paw Withdrawal Threshold 50% (von Frey filaments)” value in series [1] (Day 3, individual mice) is 0.4 g; in series [1] (Day 5, individual mice), 1.0 g (7×) and 0.6 g (3×) and 0.4 g (2×); in series [1] (Day 7, individual mice), 1.0 g (6×) and 0.4 g (4×) and 0.6 g (2×); in series [1] (Day 9, individual mice) it was 1.0 g (9×) and 0.4 g and 0.6 g (2×).
